Our source for the binding values is doi:10.1101/333070.

The target in test [1] is T1, mouse NGF pro-domain (NGFpd), residues 19-121 of mouse β-proNGF (mouse) (UniProt P01139).
T1 sequence: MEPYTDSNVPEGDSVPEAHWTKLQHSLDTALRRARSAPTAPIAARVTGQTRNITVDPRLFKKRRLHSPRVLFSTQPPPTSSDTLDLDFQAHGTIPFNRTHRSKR
Kind of test: NMR titration.

In test [2] the target is mature mouse nerve growth factor (NGF) (mouse) (UniProt P01139). Kind of test: NMR titration.
For test [3] the target is unchanged. Kind of test: NMR paramagnetic relaxation enhancement.

Positions count from the first letter of the chain named. These are yes or no findings as the source states them, for the method shown. Some entries that bind do so weakly or less than the wild type. Where a sequence is shown, tags or fusion partners need not be part of it.

For the molecule “mature mouse nerve growth factor (NGF) (from UniProt P01139 122-241) (ligand)”, the binding entry in test [1] is given as “binds weakly”.

B1: mouse NGF pro-domain (NGFpd), residues 19-121 of mouse β-proNGF (domain or fragment, UniProt P01139 19-121)
chain: T1 sequence
As for B1, in test [2], the binding result is recorded as “binds weakly”.

B2: NGFpdS90C-MTSL (domain or fragment, UniProt P01139 19-121)
chain: T1 sequence with S73C
modifications: MTSL nitroxide spin label on Cys90
Consider B2, for which the binding result in test [3] is reported as “binds”.

B3: NGFpdE19C-MTSL (domain or fragment, UniProt P01139 19-121)
chain: T1 sequence with E2C
modifications: MTSL nitroxide spin label on Cys19
Regarding B3, in test [3], the binding entry is reported as “binds”.

B4: NGFpdS24C-MTSL (domain or fragment, UniProt P01139 19-121)
chain: T1 sequence with S7C
modifications: MTSL nitroxide spin label on Cys24
Turning to B4, the binding result in test [3] is reported as “binds”.
